Assay results from PubChem BioAssay AID2685 (National Center for Advancing Translational Sciences (NCATS), 2010).
This is one part of the list. The main result of the screen is listed elsewhere. These columns were measured beside it and carry no call. The list favours compounds with an active or inconclusive main result. The note in brackets gives the kind of curve behind each potency; many fits are weak.

Assay: qHTS Assay for Lipid Storage Modulators in Drosophila S3 Cells;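 as to cell number change: cells counted by Cell Tracker Red CMTPX staining in the red channel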
Conditions: BODIPY lipid droplet fluorescence, 18-24 h; for cell number change: measured here: cell count max response, cells fed with added oleic acid
Method in brief: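 Laser-scanning cytometry quantifies lipid droplet accumulation (500–530 nm total intensity; droplet/cell object ratio) in oleic acid-fed (400 uM added) Drosophila S3 cells treated with a concentration series. 20 uM Triacsin C defined 100% inhibition.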

[1] = measured here: lipid fluorescence (Fed channel) AC50, cells fed with added oleic acid
[2] = measured here: cell number channel AC50, cells fed with added oleic acid

Structure (SMILES) | cell number change [%] | AC50 [1] | AC50 [2]
O=c1[nH]c(C2CCCN(S(=O)(=O)c3ccccc3)C2)nc2c1nnn2Cc1ccccc1 (centres undefined) | 6.19 | 1.84 µM [rising, partial curve] | –
Cc1c(Cl)cccc1NC(=S)NCCCN(C)C | -15 | – | –
COc1cc(NC(=O)CCCl)cc(-n2cnnn2)c1 | -104 | 23.1 µM [rising, single point] | 23.1 µM [falling, single point]
CC(C)[C@H](NC(=O)c1ccco1)C(=O)OCC(=O)NC12CC3CC(CC(C3)C1)C2 | 7.87 | – | –
CC(=O)Nc1ccc(S(=O)(=O)NC2Cc3ccccc3C2)cc1 | -15.3 | – | 0.411 µM [falling, full curve, poor fit]
O=C(CSc1ncn[nH]1)N1CCN(c2nnc(-c3ccccc3)c3ccccc23)CC1 | – | 4.11 µM [rising, single point] | 1.64 µM [rising, partial curve, poor fit]
CCC(C)Sc1nc2c(c(=O)[nH]c(=O)n2C)n1C (centres undefined) | 9.91 | 0.13 µM [falling, full curve, poor fit] | –
Cc1ccc(S(=O)(=O)N(C)C)cc1NC(=S)NC(=O)C12CC3CC(CC(C3)C1)C2 | -41.6 | 3.26 µM [falling, partial curve, poor fit] | 2.06 µM [falling, full curve]
COc1ccccc1CN1CC(C(=O)N(C)Cc2nc(C)cs2)CCC1=O (centres undefined) | -11 | 0.058 µM [falling, full curve, poor fit] | –
O=C(CN1CCCCCCC1)Nc1cccc(Cl)c1Cl | – | 0.00461 µM [falling, full curve] | 0.00517 µM [falling, full curve, poor fit]
C[C@@H]1NC(=O)[C@H](CCC(N)=O)NC(=O)c2cc([N+](=O)[O-])cc(I)c2NCC[C@@H](C(N)=O)NC1=O | -34.8 | 29.1 µM [falling, single point] | 32.6 µM [falling, single point]
CCOC(=O)N1CCN(C(=O)c2cc3n(n2)C(C(F)(F)F)CC(c2ccc4c(c2)OCO4)N3)CC1 (centres undefined) | 13.8 | 6.51 µM [rising, single point] | 6.51 µM [rising, partial curve]
Cc1ccc(-c2nn3nnnc3c3ccccc23)cc1 | 22 | – | 0.517 µM [rising, full curve, poor fit]
COc1ccc(S(=O)(=O)N/N=C(/C)c2ccncc2)c(OC)c1 | 11 | – | –
CS(=O)(=O)c1ccc(Cl)c(NC(=O)CCCSc2ccccc2)c1 | 10.1 | – | –
CN(Cc1cn(Cc2ccccc2)nc1-c1ccc2c(c1)OCO2)Cc1nccn1C | 12.8 | 0.92 µM [rising, partial curve] | –
CCCCNC(=O)CN1C(=O)C(CC)Oc2ccc(Cl)cc21 (centres undefined) | -12.6 | 1.84 µM [falling, partial curve] | –
Cc1ccc(C(=O)NNC(=O)c2ccc(Br)s2)cc1S(=O)(=O)N1CCOCC1 | 12.1 | 6.51 µM [rising, partial curve, poor fit] | –
CCOC(=O)c1c(O)c2cc(Cl)ccc2n(CC)c1=O | -32.3 | – | 32.6 µM [falling, partial curve, poor fit]
COCCn1nnnc1C(c1cc(OC)ccc1OC)N1CCc2ccccc2C1 (centres undefined) | 10.1 | 8.2 µM [rising, partial curve, poor fit] | –

Of the compounds above, 3 have an aryl thioether with sulfur outside any ring.
Structure (SMILES) | cell number change [%] | AC50 [1] | AC50 [2]
O=C(CSc1ncn[nH]1)N1CCN(c2nnc(-c3ccccc3)c3ccccc23)CC1 | – | 4.11 µM [rising, single point] | 1.64 µM [rising, partial curve, poor fit]
CCC(C)Sc1nc2c(c(=O)[nH]c(=O)n2C)n1C (centres undefined) | 9.91 | 0.13 µM [falling, full curve, poor fit] | –
CS(=O)(=O)c1ccc(Cl)c(NC(=O)CCCSc2ccccc2)c1 | 10.1 | – | –

Additional records follow.

Structure (SMILES) | cell number change [%] | AC50 [1] | AC50 [2]
O=C(c1cc(Cl)ccc1[N+](=O)[O-])N1CCc2ccccc2C1 | -5.94 | 2.31 µM [rising, partial curve, poor fit] | –
Cn1c(=O)n(C)c2cc(C(=O)O)ccc21 | -2.11 | – | –
O=C(CC1Nc2ccccc2NC1=O)Nc1ccc2c(c1)OCO2 (centres undefined) | -16.1 | 3.26 µM [falling, single point] | –
CC(CCc1ccc(O)cc1)NCc1ccc(Cl)cc1Cl (centres undefined) | -26.7 | – | –
Cc1cc(C)cc(NC(=O)c2cc3c(=O)n4ccccc4nc3s2)c1 | – | 29.1 µM [falling, single point] | –
N/C(=N\OC(=O)Oc1ccccc1)c1ccc([N+](=O)[O-])cc1 | -100 | 0.13 µM [falling, full curve, poor fit] | 7.31 µM [falling, partial curve]
CCN1/C(=C/C(C)=C/c2sc3ccccc3[n+]2CC)Sc2ccccc21 | -97.7 | 1.64 µM [falling, full curve] | 23.1 µM [falling, single point]
c1ccc2c(c1)c1cccc3ccc4cccc2c4c31 | -1.81 | – | –
Cc1c(C(C)O)nnn1-c1nonc1N (centres undefined) | -22.3 | 0.731 µM [falling, full curve] | –
O=[N+]([O-])c1ccc(CSc2ccc(S(=O)(=O)N3CCCCCC3)cn2)cc1 | -1.61 | – | –
CC12CCC(C(N)=O)(c3nc4ccccc4nc31)C2(C)C (centres undefined) | 17.8 | 6.51 µM [falling, single point] | –
O=C1c2ccccc2C(=O)N1OCCOCCOCCON1C(=O)c2ccccc2C1=O | -23.5 | 8.2 µM [falling, partial curve] | 2.59 µM [falling, single point]
CCN(C(=O)CSc1ncnc2sc(C)c(C)c12)C1CCS(=O)(=O)C1 (centres undefined) | – | 29.1 µM [rising, partial curve] | –
CC(=O)NC(C)c1cc(Cl)c2ccccc2c1O (centres undefined) | 19.1 | 0.651 µM [rising, partial curve] | –
O=C(COC(=O)C1CC2CCCC(C1)C2=O)NC(=O)c1ccc(OC(F)F)cc1 (centres undefined) | 30.5 | – | –
c1ccc(CC2CCN(c3nc4ccccc4n4cnnc34)CC2)cc1 | -61.2 | 23.1 µM [falling, single point] | –
CN1CCN(C(=O)C23CC4CC(C)(CC(C)(C4)C2)C3)CC1 | -6.99 | 18.4 µM [falling, single point] | –
COC(=O)n1c(=O)oc2cc(S(=O)(=O)N3CCCCC3)ccc21 | -4.63 | – | –
CCn1c(=O)c2ccccc2n(Cc2cccc([N+](=O)[O-])c2)c1=O | 29.1 | 29.1 µM [rising, single point] | 1.64 µM [rising, full curve, poor fit]
